{"source": "patent US20030087799A1", "about": "“Modulation” (priority 2001, published 2003)", "system": "SK mediated AHP currents (I-AHP) in dopaminergic neurons", "assay_type": "cell-based, mouse", "data": [{"smiles": "COC(=O)C1=C(C)NC(C)=C(C(=O)OC)C1c1ccccc1[N+](=O)[O-]", "note": "[nifedipine]", "values": [{"measurement": "I-AHP residual current", "result": "102±6", "unit": "%"}]}]}
